Laboratory results as given in the supplement of paper PMC10849652.
The list shows a part of the results.

Amino acid sequences for entries named in this document (tags omitted). A change or cut given only in a name is not applied to a line headed by its entry.
UniProt P32929, whole entry, looked up: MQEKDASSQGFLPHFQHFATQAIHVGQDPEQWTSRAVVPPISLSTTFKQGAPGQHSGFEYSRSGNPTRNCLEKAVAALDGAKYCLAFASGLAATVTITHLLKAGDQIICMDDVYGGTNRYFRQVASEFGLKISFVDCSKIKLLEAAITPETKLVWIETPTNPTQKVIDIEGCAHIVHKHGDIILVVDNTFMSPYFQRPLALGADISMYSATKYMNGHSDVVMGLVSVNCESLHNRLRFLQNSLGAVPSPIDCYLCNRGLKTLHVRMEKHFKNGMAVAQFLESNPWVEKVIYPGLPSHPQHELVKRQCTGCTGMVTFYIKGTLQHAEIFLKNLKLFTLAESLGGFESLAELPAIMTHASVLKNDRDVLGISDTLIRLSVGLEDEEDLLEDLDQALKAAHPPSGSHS
UniProt Q5JQC4: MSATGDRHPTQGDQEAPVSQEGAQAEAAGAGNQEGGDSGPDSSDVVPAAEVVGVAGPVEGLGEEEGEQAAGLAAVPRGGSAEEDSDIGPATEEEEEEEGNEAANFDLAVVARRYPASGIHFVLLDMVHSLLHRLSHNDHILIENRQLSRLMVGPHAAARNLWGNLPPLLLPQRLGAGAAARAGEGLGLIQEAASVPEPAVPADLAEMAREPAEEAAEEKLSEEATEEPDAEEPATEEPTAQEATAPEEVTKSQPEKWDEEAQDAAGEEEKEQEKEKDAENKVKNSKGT
UniProt P33240: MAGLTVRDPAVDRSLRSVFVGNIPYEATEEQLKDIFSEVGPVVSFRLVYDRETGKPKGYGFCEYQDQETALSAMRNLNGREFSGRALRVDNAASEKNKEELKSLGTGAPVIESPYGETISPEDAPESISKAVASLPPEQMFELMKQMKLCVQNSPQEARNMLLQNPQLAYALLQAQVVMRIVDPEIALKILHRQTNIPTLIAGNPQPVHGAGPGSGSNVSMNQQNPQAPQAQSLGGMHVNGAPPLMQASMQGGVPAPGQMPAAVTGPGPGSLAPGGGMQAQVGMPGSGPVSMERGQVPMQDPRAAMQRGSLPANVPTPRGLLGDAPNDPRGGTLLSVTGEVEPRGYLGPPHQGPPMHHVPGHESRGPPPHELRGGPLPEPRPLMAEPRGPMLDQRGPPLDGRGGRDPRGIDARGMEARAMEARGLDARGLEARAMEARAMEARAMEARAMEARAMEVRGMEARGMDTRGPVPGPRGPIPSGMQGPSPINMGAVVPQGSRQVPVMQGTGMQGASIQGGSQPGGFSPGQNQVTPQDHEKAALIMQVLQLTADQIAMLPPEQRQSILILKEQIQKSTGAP
UniProt Q9P013: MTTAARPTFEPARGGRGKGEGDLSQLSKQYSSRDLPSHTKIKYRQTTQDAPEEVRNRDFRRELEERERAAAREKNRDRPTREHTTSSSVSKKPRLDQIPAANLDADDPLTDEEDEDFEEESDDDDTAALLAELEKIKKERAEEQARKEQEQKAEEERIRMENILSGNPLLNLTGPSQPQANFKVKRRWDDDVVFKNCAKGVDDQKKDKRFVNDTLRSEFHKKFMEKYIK

What was measured:
Experiment in all cases: log2 fold change, soluble protein after heating vs DMSO (PISA); higher = thermal stabilisation; K562 lysate, 10 uM; active = over 0.2 and 3.5 SD of the protein, either way, in both replicates (recomputed)
erlotinib = compound: C#Cc1cccc(Nc2ncnc3cc(OCCOC)c(OCCOC)cc23)c1 [erlotinib]
In short: (§1)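 Soluble protein was defined as the supernatant remaining after 21,000xg for 90 min, following pooling of heated aliquots and adjustment to 0.5% NP-40 at 4°C. Before that, crude K562 extract at 1 mg/mL protein in PBS pH 7.4 with 1 mM MgCl2 was treated with 10 μM compound for 30 min and heated for 3 min across 48°C-58°C. Quantification used TMTpro 16plex LC-MS/MS with channel sums equalised, and values are log-two fold changes in thermal stability relative to solvent controls from duplicates.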

[1] = compound: C/C(=N\NC(=O)C1=CC(=CC=C1)S(=O)(=O)N2CCOCC2)/C3=C(C=CC(=C3)Cl)O
In short: as §1

[2] = compound: C1=CC(=CC=C1C2=NC3=C(N2)C=C(C=C3)C(=O)N)OC4=CC=C(C=C4)Cl
In short: as §1

[3] = compound: C1=CC2=C(C=CC(=C2)/C=C\3/C(=O)NC(=NCC4=CC=CS4)S3)N=C1
In short: as §1

[4] = compound: C1=CC2=NC=CN=C2C=C1/C=C/3\C(=O)NC(=O)S3
In short: as §1

[5] = compound: C1=CC=C(C=C1)C2=NC(=C(N2)C3=CC=NC=C3)C4=CC(=C(C=C4)Cl)O
In short: as §1

[6] = compound: C1=CC=C2C(=C1)C3=NNC4=CC=CC(=C43)C2=O
In short: as §1

[7] = compound: C1CCN(C1)C(=O)NC2=CC=CC(=C2)NC3=NC=C(C(=N3)NCCC4=CN=CN4)Br
In short: as §1

[8] = compound: C1CN(CCC1(CC2=CC=C(C=C2)Cl)N)C3=NC=NC4=C3C=CN4
In short: as §1

IRAK-1-4 Inhibitor I = compound: C1COCCN1CCN2C3=CC=CC=C3N=C2NC(=O)C4=CC(=CC=C4)[N+](=O)[O-] [IRAK-1-4 Inhibitor I]
In short: as §1

ibrutinib = compound: C=CC(=O)N1CCC[C@@H](n2nc(-c3ccc(Oc4ccccc4)cc3)c3c(N)ncnc32)C1 [ibrutinib]
In short: as §1

[9] = compound: CC(=O)c1cnc2ccc(-c3cc(Cl)c(O)c(Cl)c3)nc2c1N[C@H]1CC[C@H](CN(C)C)CC1
In short: as §1

ralimetinib = compound: CC(C)(C)Cn1c(N)nc2ccc(-c3[nH]c(C(C)(C)C)nc3-c3ccc(F)cc3)nc21 [ralimetinib]
In short: as §1

[10] = compound: CC(C)(O)CC(=O)NCCn1ccc2ncnc(Nc3ccc(Oc4cccc(C(F)(F)F)c4)c(Cl)c3)c21
In short: as §1

[11] = compound: CC(C)C1=C2N=C(C=C(N2N=C1)NCC3=CC=CC=C3)NCCCCCCN
In short: as §1

[12] = compound: CC1=C(C(CC(=O)N1)C2=CC=C(C=C2)C(F)(F)F)C(=O)NC3=C(C=C4C(=C3)C=NN4)F
In short: as §1

[13] = compound: CC1=C(C2=C(C=C1)C(=O)C3=CC=CC=C3N2CCCN)C
In short: as §1

[14] = compound: CC1=C(C=C(C=C1)NC(=O)C2=CC(=CC=C2)C(C)(C)C#N)NC3=CC4=C(C=C3)N=CN(C4=O)C
In short: as §1

[15] = compound: CC1=C(C=C(C=C1)NC(=O)C2=CC(=CC=C2)N(C)C)NC(=O)C3=CC=C(C=C3)O
In short: as §1

[16] = compound: CC1=CC=C(C=C1)SC2=C3C=C(SC3=CN=C2)C(=O)N
In short: as §1

Measured: log2 fold change

CTH (UniProt P32929)
inactive: erlotinib 0.005 | [1] 0.03 | [2] 0 | [3] -0.009 | [4] 0.027 | [5] 0.013 | [6] -0.005 | [7] -0.01 | [8] 0.007 | IRAK-1-4 Inhibitor I 0.034 | ibrutinib 0.028 | [9] -0.015 | ralimetinib 0.015 | [10] -0.009 | [11] 0.012 | [12] -0.026 | [13] 0.011 | [14] 0.033 | [15] -0.02 | [16] -0.026

CT47A1 (UniProt Q5JQC4)
inactive: erlotinib -0.003 | [1] -0.006 | [2] -0.003 | [3] -0.024 | [4] 0.006 | [5] 0.016 | [6] -0.132 | [7] -0.015 | [8] 0.055 | IRAK-1-4 Inhibitor I 0.017 | ibrutinib -0.007 | [9] -0.016 | ralimetinib 0.021 | [10] -0.032 | [11] 0.024 | [12] -0.061 | [13] -0.011 | [14] -0.004 | [15] 0.004 | [16] -0.024

CSTF2 (UniProt P33240)
active: ibrutinib 0.244
inactive: erlotinib -0.036 | [1] -0.002 | [2] 0.048 | [3] -0.048 | [4] 0.044 | [5] 0.011 | [6] -0.04 | [7] 0.002 | [8] 0 | IRAK-1-4 Inhibitor I 0.053 | [9] -0.001 | ralimetinib 0.025 | [10] -0.033 | [11] -0.022 | [12] -0.033 | [13] -0.02 | [14] -0.011 | [15] 0.052 | [16] 0.011

CWC15 (UniProt Q9P013)
inactive: erlotinib -0.025 | [1] 0 | [2] -0.035 | [3] 0.02 | [4] 0 | [5] 0.003 | [6] 0.043 | [7] 0.012 | [8] -0.046 | IRAK-1-4 Inhibitor I -0.002 | ibrutinib 0.013 | [9] 0.008 | ralimetinib -0.017 | [10] -0.039 | [11] -0.019 | [12] 0.077 | [13] 0.02 | [14] -0.012 | [15] -0.053 | [16] -0.045
